This list was built around the results that the source calls inconclusive (neither active nor inactive); the mix of calls is not that of the screen. Where the call is inconclusive, the potency comes from a doubtful curve fit. The source made the active and inactive calls. The call rests on the fitted dose curve; in most records, active means well fitted cell-killing curve with a large enough effect; inconclusive means small, poorly fitted or top-dose-only effect, or effect the other way; inactive means no such curve, though single readings can be large or run the other way.
Assay: Quantitative High-Throughput drug screen in 47 multiple myeloma cell lines against the NCATS MIPE library collection: MMM1_PLB cell viability assay (AID 1918976); further: nearly all actives have a fitted effect of over 35% in size
Conditions: MMM1 myeloma cells viability, CellTiter-Glo, 48 h; series mostly up to 45.8 µM
Excerpt: PI: Beverly A. Mock Ph.D.
Laboratory of Cancer Biology and Genetics,
Center for Cancer Research, National Cancer Institute,
National Institute of Health, Bethesda, Maryland
Drug resistance and disease progression are common in multiple myeloma (MM) patients, underscoring the need for new therapeutic combinations. […] We hypothesized that effective combinations would reduce MYC expression and enhance p16 activity. […] These preclinical data identify potentially useful drug combinations for evaluation in drug-resistant MM and reveal potential mechanisms of combined drug sensitivity.
Described herein is the primary MIPE qHTS used to cherrypick compounds. Validated compounds were then further tested for potential synergistic activiy.
[1] Peat TJ, Gaikwad SM, Dubois W, Gyabaah-Kessie N, Zhang S, Gorjifard S, Phyo Z, Andres M, Hughitt VK, Simpson RM, Miller MA, Girvin AT, Taylor A, Williams D, D'Antonio N, Zhang Y, Rajagopalan A, Flietner E, Wilson K, Zhang X, Shinn P, Klumpp-Thomas C, McKnight C, Itkin Z, Chen L, Kazandijian D, Zhang J, Michalowski AM, Simmons JK, Keats J, Thomas CJ, Mock BA. Drug combinations identified by high-throughput screening promote cell cycle transition and upregulate Smad pathways in myeloma. Cancer Lett. 2023 Aug 1;568:216284. doi: 10.1016/j.canlet.2023.216284. Epub 2023 Jun 24. PMID: 37356470; PMCID: PMC10408729.
SEQUENCE No. (e.g., 1, 2, 3, etc.); […] (e.g., Cells, Incubation, Reagent, etc.); VALUE and DESCRIPTION.
1; Cells; 5 uL; white, solid bottom 1536-well Greiner assay plate.
2; Compounds; 23 nL; Kalypsis pin tool (Wako USA) equipped with a 1536-well pin head to transfer to the assay plates.
3; Incubation; 48 hours; 37C incubation.
4; Reagent;5uL; CellTiter Glo (Promega).
5; Detector; 425V; Luminescence; Viewlux PerkinElmer.
NOTES (numbers refer to Sequence numbers above)
1. The cell-based screening methods employed in this study were like those previously published. Briefly, the corresponding myeloma cell lines were screened in 1,536-well plates with 500 cells, 5-uL per well for inhibition of cell viability (assessed by measuring ATP levels with CellTiterGlo).
2. NCATS MIPE 4.0 library of approved and investigational drugs were added using the Kalypsis pin tool. Wells treated with DMSO only for 100% viability and media only for 0% viability were used as controls.
3. The assay plates were covered and incubated for 48 hours in a 37C, 5% CO2 incubator with controlled humidity.
4. After 48 hours, CellTilter-GloTM luminescent substrate mix (Promega) reagent was added to the assay plate and plates we incubated for 5 min at room temperature.
5. Signal was measured as median relative luminescence units on a ViewLux (PerkinElmer) multiplate reader.
[1] Heske CM, Davis MI, Baumgart JT, Wilson K, Gormally MV, Chen L, Zhang X, Ceribelli M, Duveau DY, Guha R, Ferrer M, Arnaldez FI, Ji J, Tran HL, Zhang Y, Mendoza A, Helman LJ, Thomas CJ. Matrix Screen Identifies Synergistic Combination of PARP Inhibitors and Nicotinamide Phosphoribosyltransferase (NAMPT) Inhibitors in Ewing Sarcoma. Clin Cancer Res. 2017 Dec 1;23(23):7301-7311. doi: 10.1158/1078-0432.CCR-17-1121. Epub 2017 Sep 12. PMID: 28899971; PMCID: PMC6636827.
Potency means the concentration at half of the fitted maximal effect.

Structure (SMILES) | Potency
NS(=O)(=O)c1ccc(NC2=CC(=O)c3ccccc3C2=O)cc1 | inconclusive: 1.3 nM [rising, full curve]
C[C@]12CCC3c4ccc(O)cc4CCC3C1CCC2=O (stereo not given in full) | inconclusive: 14800 nM [cytotoxic, partial curve, poor fit]
Cc1nc(C(=O)NCC(=O)O)c(O)c2ccc(Oc3ccccc3)cc12 | active: 5.3 nM
N#Cc1ccc(Oc2ccc3c(c2)COB3O)cc1 | inconclusive: 23500 nM [cytotoxic, partial curve, poor fit]
N=C(N=C(N)N)N1CCOCC1 | inconclusive: 4180 nM [cytotoxic, partial curve, poor fit]
COc1ncnc(NS(=O)(=O)c2ccc(N)cc2)c1OC | inconclusive: 14.8 nM [rising, full curve]
CCC1=C(C)CN(C(=O)NCCc2ccc(S(=O)(=O)NC(=O)NC3CCC(C)CC3)cc2)C1=O (stereo not given) | inconclusive: 6.6 nM [rising, full curve, poor fit]
CCOC(=O)N[C@@H]1CC[C@@H]2[C@@H](C1)C[C@H]1C(=O)O[C@H](C)[C@H]1[C@@H]2C=Cc1ccc(-c2cccc(F)c2)cn1 | inconclusive: 33200 nM [cytotoxic, single point]
O=C(c1cncc(Br)c1)N1CCC(N2CCCC2)CC1 | inactive
NC12CC3CC(CC(C3)C1)C2 | inactive
CCOC(=O)c1c(C)n(C)c2ccc(O)cc12 | inconclusive: 7430 nM [cytotoxic, full curve, poor fit]
CC[C@H](NC(C)C)[C@H](O)c1ccc(O)c2[nH]c(=O)ccc12 | inconclusive: 5900 nM [cytotoxic, partial curve, poor fit]
COc1c(N2CCNC(C)C2)c(F)cc2c(=O)c(C(=O)O)cn(C3CC3)c12 (stereo not given) | inconclusive: 4.2 nM [rising, full curve, poor fit]
NC[C@H]1O[C@H](O[C@@H]2[C@@H](O)[C@@H](O[C@H]3O[C@H](CO)[C@@H](O)[C@H](N)[C@@H]3O)[C@H](N)C[C@@H]2N)[C@H](O)[C@@H](O)[C@H]1O | inconclusive: 2350 nM [cytotoxic, full curve, poor fit]
CC[C@H](NC(=O)[C@H](C)NC)C(=O)N1C[C@@H](O)C[C@H]1Cc1c(-c2[nH]c3cc(F)ccc3c2C[C@H]2C[C@H](O)CN2C(=O)[C@H](CC)NC(=O)[C@H](C)NC)[nH]c2cc(F)ccc12 | inconclusive: 5.3 nM [rising, full curve, poor fit]
O=C(C=Cc1ccc(/C=C/C(=O)Nc2ccc(C3=NCCN3)cc2)cc1)Nc1ccc(C2=NCCN2)cc1 | inconclusive: 41.8 nM [rising, full curve, poor fit]
COCCOC(=O)C1=C(C)NC2=C(C(=O)CC(c3ccccc3OC)C2)C1c1cccc(O)c1 (stereo not given) | inconclusive: 8330 nM [cytotoxic, partial curve, poor fit]
CCN(C(=O)c1c(O)c2c(Cl)cccc2n(C)c1=O)c1ccccc1 | inconclusive: 4.7 nM [rising, full curve]
Cn1c(=O)c(F)c(Nc2ccc(I)cc2F)c2c(=O)n(C[C@@H](O)CO)cnc21 | inconclusive: 118 nM [rising, full curve]
CC1(C)O[C@H]2C[C@@H]3[C@H]4CCC5=CC(=O)C=C[C@]5(C)[C@@]4(F)[C@@H](O)C[C@]3(C)[C@]2(C(=O)CO)O1 | inconclusive: 526 nM [rising, partial curve, poor fit]

Some of these compounds in order of length of the SMILES, smallest number first.
Structure (SMILES) | Potency
N#Cc1ccc(Oc2ccc3c(c2)COB3O)cc1 | inconclusive: 23500 nM [cytotoxic, partial curve, poor fit]
COCCOC(=O)C1=C(C)NC2=C(C(=O)CC(c3ccccc3OC)C2)C1c1cccc(O)c1 (stereo not given) | inconclusive: 8330 nM [cytotoxic, partial curve, poor fit]
CC[C@H](NC(=O)[C@H](C)NC)C(=O)N1C[C@@H](O)C[C@H]1Cc1c(-c2[nH]c3cc(F)ccc3c2C[C@H]2C[C@H](O)CN2C(=O)[C@H](CC)NC(=O)[C@H](C)NC)[nH]c2cc(F)ccc12 | inconclusive: 5.3 nM [rising, full curve, poor fit]

Additional compounds.

Structure (SMILES) | Potency
CC[C@H](C=C[C@@H](C)[C@H]1CC[C@H]2[C@@H]3CC=C4C[C@@H](O)CC[C@]4(C)[C@@H]3CC[C@]12C)C(C)C | inconclusive: 14400 nM [cytotoxic, single point]
COc1cc(C(=O)NC2CCN(C)CC2)ccc1Nc1ncc2c(n1)N(C1CCCC1)CCC(=O)N2C(C)C | inconclusive: 20900 nM [cytotoxic, partial curve, poor fit]
CN(C)CCc1c[nH]c2ccc(Cn3cncn3)cc12 | inconclusive: 1.9 nM [rising, full curve, poor fit]
Cc1noc(NS(=O)(=O)c2ccc(N)cc2)c1C | inconclusive: 59 nM [rising, full curve, poor fit]
COc1cccc([C@@H](C)NCCCc2ccccc2Cl)c1 | inconclusive: 3 nM [rising, full curve, poor fit]
Cn1c(N2CCCCS2(=O)=O)nc(C(=O)NCc2ccc(F)cc2)c(O)c1=O | inconclusive: 11800 nM [cytotoxic, partial curve, poor fit]
CC(C)(Cc1ccc2ccccc2c1)NC[C@@H](O)COc1cccc(Cl)c1C#N | inconclusive: 9350 nM [cytotoxic, partial curve, poor fit]
CN(CCOc1ccc(NS(C)(=O)=O)cc1)CCc1ccc(NS(C)(=O)=O)cc1 | inconclusive: 11.8 nM [rising, full curve, poor fit]
CN(C)Cc1ccc(-c2nc3cccc4c3n2CCNC4=O)cc1 | inconclusive: 33200 nM [cytotoxic, partial curve, poor fit]
COc1ccc(Cc2ccc(NC(N)=O)cc2)cc1-c1cccc(Cl)c1 | inconclusive: 33200 nM [cytotoxic, single point]
CN1CCN2c3ncccc3Cc3ccccc3C2C1 (stereo not given) | inconclusive: 4690 nM [cytotoxic, full curve, poor fit]
N[C@@]1(C(=O)O)CS(=O)(=O)[C@H]2[C@H](C(=O)O)[C@H]21 | inconclusive: 18.7 nM [rising, full curve]
Cc1ccc(N(CC2=NCCN2)c2cccc(O)c2)cc1 | active: 2960 nM
Cc1ccccc1-n1c(Cn2nc(-c3cccc(O)c3)c3c(N)ncnc32)nc2cccc(C)c2c1=O | active: 18700 nM
CC(S)C(=O)NCC(=O)O (stereo not given) | inconclusive: 41.8 nM [rising, full curve]
NC(=O)c1ccc2nc(-c3ccc(Oc4ccc(Cl)cc4)cc3)[nH]c2c1 | inconclusive: 37200 nM [cytotoxic, single point]
O=C(O)c1ccc(-c2cc3cccnc3c(-c3ccc4nonc4c3)n2)cc1 | active: 26400 nM
C1Cc2[nH]nc(-c3nn[nH]n3)c2C1 | inconclusive: 3.7 nM [rising, full curve, poor fit]
CN1C(C(=O)Nc2ccccn2)=C(O)c2ccccc2S1(=O)=O | inconclusive: 1.2 nM [rising, full curve, poor fit]
C[C@H](NC(=O)Cc1cc(F)cc(F)c1)C(=O)N[C@H](C(=O)OC(C)(C)C)c1ccccc1 | inconclusive: 10500 nM [cytotoxic, partial curve, poor fit]

Reference: PubChem BioAssay (NCATS)
